# Inconclusive means that the source gave no clear call. Such entries were picked first, then a sample of the others. Potencies beside an inconclusive call are fits to weak or partial responses and may not hold up. Activity calls are given as the source filed them. Rule for the calls: active = hit-call score of the fitted dose curve at least 0.9, where 1 is the maximum; inconclusive = response in the unintended direction; inactive = score below 0.9.
# Chains of the proteins cited; added tags and fusions are not shown. Lines headed by an entry give the natural chain unless they say otherwise; changes in a name come on top.
# UniProt Q92753: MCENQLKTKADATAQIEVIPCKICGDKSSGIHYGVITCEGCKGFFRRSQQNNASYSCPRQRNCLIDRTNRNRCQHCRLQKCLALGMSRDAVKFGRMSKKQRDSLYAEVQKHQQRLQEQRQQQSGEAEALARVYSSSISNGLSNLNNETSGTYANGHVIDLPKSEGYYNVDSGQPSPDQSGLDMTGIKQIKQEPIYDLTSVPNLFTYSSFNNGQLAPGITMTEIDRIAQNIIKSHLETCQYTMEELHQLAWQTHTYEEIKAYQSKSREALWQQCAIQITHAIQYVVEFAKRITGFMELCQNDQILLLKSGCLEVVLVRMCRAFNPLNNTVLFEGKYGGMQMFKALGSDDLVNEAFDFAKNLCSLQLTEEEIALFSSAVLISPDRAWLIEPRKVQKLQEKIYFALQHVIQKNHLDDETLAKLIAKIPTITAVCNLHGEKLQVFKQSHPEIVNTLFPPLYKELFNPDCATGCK
# UniProt P51449: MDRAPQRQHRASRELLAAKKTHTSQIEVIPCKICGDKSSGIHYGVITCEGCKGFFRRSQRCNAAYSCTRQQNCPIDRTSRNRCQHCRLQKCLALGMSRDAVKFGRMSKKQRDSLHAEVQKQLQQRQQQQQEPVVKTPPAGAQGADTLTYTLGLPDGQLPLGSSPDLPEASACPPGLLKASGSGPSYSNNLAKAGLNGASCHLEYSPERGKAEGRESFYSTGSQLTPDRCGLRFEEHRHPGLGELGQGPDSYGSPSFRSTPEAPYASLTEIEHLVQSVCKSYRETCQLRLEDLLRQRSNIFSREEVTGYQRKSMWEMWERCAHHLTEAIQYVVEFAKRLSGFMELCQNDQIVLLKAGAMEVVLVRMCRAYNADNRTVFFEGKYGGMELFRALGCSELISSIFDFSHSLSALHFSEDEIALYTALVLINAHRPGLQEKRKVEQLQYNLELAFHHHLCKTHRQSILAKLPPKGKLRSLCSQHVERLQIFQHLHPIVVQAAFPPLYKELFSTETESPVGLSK
# UniProt P19793: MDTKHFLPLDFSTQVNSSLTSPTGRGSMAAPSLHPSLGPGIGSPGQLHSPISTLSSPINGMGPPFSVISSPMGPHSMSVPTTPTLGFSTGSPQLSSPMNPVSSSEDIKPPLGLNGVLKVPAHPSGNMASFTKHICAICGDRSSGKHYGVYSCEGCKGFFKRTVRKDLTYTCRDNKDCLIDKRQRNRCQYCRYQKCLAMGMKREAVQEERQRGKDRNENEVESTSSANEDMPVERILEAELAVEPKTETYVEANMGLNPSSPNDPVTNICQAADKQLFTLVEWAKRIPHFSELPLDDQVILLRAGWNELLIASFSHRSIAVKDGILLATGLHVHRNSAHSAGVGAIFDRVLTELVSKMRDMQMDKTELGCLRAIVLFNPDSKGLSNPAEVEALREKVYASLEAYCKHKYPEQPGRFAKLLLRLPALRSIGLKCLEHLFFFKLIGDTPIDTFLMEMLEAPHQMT
# UniProt P28702: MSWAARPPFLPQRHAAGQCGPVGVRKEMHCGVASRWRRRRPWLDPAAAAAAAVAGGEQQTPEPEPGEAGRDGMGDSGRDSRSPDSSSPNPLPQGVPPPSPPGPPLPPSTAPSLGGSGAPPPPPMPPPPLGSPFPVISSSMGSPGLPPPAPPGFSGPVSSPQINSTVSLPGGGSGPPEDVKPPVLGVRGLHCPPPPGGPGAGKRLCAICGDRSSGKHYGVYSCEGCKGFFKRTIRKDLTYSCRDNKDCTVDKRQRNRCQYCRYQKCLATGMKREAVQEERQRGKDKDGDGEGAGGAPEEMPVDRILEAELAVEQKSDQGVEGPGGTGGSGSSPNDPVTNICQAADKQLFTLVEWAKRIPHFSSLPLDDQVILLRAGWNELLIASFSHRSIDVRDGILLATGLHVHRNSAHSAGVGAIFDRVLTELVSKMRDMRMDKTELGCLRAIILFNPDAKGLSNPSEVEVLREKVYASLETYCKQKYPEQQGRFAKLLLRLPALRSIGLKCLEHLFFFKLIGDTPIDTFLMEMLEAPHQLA
# UniProt P11473: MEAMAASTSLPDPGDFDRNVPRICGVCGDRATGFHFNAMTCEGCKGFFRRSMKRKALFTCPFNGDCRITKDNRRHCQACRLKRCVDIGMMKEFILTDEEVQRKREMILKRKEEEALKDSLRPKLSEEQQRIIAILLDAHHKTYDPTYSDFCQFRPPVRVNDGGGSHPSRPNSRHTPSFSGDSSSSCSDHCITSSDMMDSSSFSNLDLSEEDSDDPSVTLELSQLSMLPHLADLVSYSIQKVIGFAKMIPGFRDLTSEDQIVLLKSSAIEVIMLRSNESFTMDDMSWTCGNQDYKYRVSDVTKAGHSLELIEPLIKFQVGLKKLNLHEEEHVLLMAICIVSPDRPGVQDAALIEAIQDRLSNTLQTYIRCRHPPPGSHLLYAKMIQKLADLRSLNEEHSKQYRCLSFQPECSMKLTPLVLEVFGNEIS
# UniProt P11511: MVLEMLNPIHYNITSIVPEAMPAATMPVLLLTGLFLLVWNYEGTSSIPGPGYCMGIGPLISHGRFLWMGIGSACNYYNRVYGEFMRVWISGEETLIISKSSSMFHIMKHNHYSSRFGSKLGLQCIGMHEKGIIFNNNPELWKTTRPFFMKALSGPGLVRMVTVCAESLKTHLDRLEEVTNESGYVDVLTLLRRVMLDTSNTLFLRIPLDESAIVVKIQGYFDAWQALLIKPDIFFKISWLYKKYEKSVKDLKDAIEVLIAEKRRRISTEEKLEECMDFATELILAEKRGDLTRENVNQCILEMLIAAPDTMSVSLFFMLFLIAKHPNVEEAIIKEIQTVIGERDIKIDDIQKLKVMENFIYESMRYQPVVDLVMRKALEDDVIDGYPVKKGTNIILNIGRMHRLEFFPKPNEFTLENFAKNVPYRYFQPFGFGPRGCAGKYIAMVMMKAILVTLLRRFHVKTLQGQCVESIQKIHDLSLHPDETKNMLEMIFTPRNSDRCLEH
# UniProt P10827: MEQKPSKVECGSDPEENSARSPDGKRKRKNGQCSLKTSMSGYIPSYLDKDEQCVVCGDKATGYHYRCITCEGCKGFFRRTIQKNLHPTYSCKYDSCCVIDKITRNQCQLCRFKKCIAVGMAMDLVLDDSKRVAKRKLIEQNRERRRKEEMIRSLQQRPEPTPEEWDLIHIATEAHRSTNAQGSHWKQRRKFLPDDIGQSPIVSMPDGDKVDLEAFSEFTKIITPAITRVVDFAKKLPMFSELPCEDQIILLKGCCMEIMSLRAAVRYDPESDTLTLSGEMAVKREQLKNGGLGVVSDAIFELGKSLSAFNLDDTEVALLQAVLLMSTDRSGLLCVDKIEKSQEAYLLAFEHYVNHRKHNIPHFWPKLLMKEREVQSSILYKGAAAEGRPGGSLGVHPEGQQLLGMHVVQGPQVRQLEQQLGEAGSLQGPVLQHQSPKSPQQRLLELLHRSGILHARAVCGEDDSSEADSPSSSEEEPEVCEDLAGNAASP
# Experiments:
# [1] = molecular target: human RAR-related Orphan Receptor beta (RORb), RORB (gene 6096) (UniProt Q92753); experiment: ATG_RORb_TRANS: Attagene TRANS-FACTORIAL HepG2 Assay for human RAR-related Orphan Receptor beta (RORb) (AID 2283010);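 for AC50: potency for increased reporter mRNA meaning activation of RORb-Gal4 chimera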
# Method in brief: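 HepG2 cells transiently transfected with GAL4-UAS reporter units expressing chimeric NR-Gal4 protein; reporter mRNA measured 24 h after dosing by RT-PCR, 6-FAM labelling and capillary electrophoresis. Gain-of-signal fitted relative to DMSO baseline.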
# [2] = molecular target: human RAR-related Orphan Receptor gamma (RORg), RORC (gene 6097) (UniProt P51449); experiment: ATG_RORg_TRANS: Attagene TRANS-FACTORIAL HepG2 Assay for human RAR-related Orphan Receptor gamma (RORg) (AID 2283011);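 for AC50: potency for induction of reporter transcripts above DMSO so activators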
# Method in brief: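 Activity is scored as increase in GAL4-UAS reporter mRNA over DMSO, detected by fluorescent RT-PCR and capillary electrophoresis in HepG2 cells transiently expressing a RORg-Gal4 chimera, 24 h after dosing.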
# [3] = molecular target: Retinoic acid receptor RXR-alpha (Homo sapiens) (UniProt P19793); experiment: ATG_RXRa_TRANS: Attagene TRANS-FACTORIAL HepG2 Assay for human Retinoid X Receptor alpha (RXRa) (AID 2283012)
# Method in brief: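 HepG2 cells transiently transfected with GAL4-UAS reporter units and chimeric RXRa-Gal4 protein, treated 24 h. Reporter mRNA measured by RT-PCR, fluorescent labelling, HpaI digestion and capillary electrophoresis. Induction fitted against DMSO.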
# [4] = molecular target: human Retinoid X Receptor beta (RXRb), RXRB (gene 6257) (UniProt P28702); experiment: ATG_RXRb_TRANS: Attagene TRANS-FACTORIAL HepG2 Assay for human Retinoid X Receptor beta (RXRb) (AID 2283013)
# Method in brief: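 HepG2 cells were transiently transfected with multiplexed GAL4-UAS reporters and a chimeric RXRb-Gal4 construct, then exposed for 24 h. Reporter mRNA was quantified by RT-PCR, FAM labeling, HpaI digestion and capillary electrophoresis; gain of signal was scored against DMSO.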
# [5] = molecular target: human Vitamin D Receptor (VDR), VDR (gene 7421) (UniProt P11473); experiment: ATG_VDR_TRANS: Attagene TRANS-FACTORIAL HepG2 Assay for human Vitamin D Receptor (VDR) (AID 2283022)
# Method in brief: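 Fluorescence of labelled reporter cDNA fragments, resolved by capillary electrophoresis, gives mRNA induction after 24 h treatment of HepG2 cells carrying transfected Gal4-fusion reporter units. Activity is fitted in the positive direction with DMSO as baseline.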
# [6] = molecular target: human CYP19A1, CYP19A1 (gene 1588) (UniProt P11511); experiment: NVS_ADME_hCYP19A1: NovaScreen (NVS) CYP450-related Enzyme Activity (ADME) Assay for human CYP19A1 (AID 2283098);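 for AC50: potency for inhibitors seen as loss of fluorescent enzyme signal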
# Method in brief: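 Cell-free enzyme assay with recombinant protein and a specific fluorogenic substrate, read by fluorescence intensity 0.5 h after dosing. Primary screen ran in duplicate at 10 uM; actives were retested in concentration series. Loss of signal versus acetonitrile baseline.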
# [7] = molecular target: human Thyroid Receptor alpha (THRa1), THRA (gene 7067) (UniProt P10827); experiment: ATG_THRa1_TRANS: Attagene TRANS-FACTORIAL HepG2 Assay for human Thyroid Receptor alpha (THRa1) (AID 2283014)
# Method in brief: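 First, HepG2 cells receive multiple GAL4-UAS reporter units and the chimeric receptor. They are then dosed for 24 h, after which RNA is reverse-transcribed, amplified, labelled, HpaI-cut and sized by capillary electrophoresis; gain relative to DMSO is scored.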
structure (smiles),measurement,setting,value
CC(C)CC(C)CC(O)CC(C)C (stereo not given),outcome,[1],inactive
same,outcome,[2],inactive
same,AC50,[3],inconclusive: 0.0787 µM
same,outcome,[4],inactive
COC(=O)CSc1cc(N=c2sc(=O)n3n2CCCC3)c(F)cc1Cl,AC50,[2],inconclusive: 50 µM
same,AC50,[4],inconclusive: 50 µM
same,AC50,[5],inconclusive: 50 µM
same,outcome,[6],inactive
C=CC(=O)OCC(F)(F)C(F)(F)C(F)(F)COC(=O)C=C,AC50,[1],inconclusive: 50 µM
same,AC50,[4],inconclusive: 50 µM
same,outcome,[7],inactive
same,AC50,[5],inconclusive: 50 µM
Nc1ccc2cc3ccccc3cc2c1,outcome,[1],inactive
same,AC50,[4],inconclusive: 2.08 µM
same,AC50,[7],inconclusive: 183 µM
same,outcome,[5],inactive
O=C(O)c1snc(Cl)c1Cl,outcome,[3],inactive
same,outcome,[4],inactive
same,AC50,[7],inconclusive: 100 µM
same,outcome,[5],inactive
CCCC(CC)c1ccccc1 (stereo not given),AC50,[1],inconclusive: 0.511 µM
same,AC50,[4],active: 66.4 µM
same,outcome,[7],inactive
same,outcome,[5],inactive
Cc1ncc([N+](=O)[O-])n1C,AC50,[4],active: 100 µM
same,AC50,[7],inconclusive: 0.0824 µM
Cc1ccc(Cl)cc1,AC50,[2],inconclusive: 58.3 µM
same,AC50,[4],inconclusive: 100 µM
CN1[C@@H]2CC(OC(=O)[C@H](CO)c3ccccc3)C[C@H]1[C@@H]1O[C@@H]12 (stereo not given in full),outcome,[1],inactive
same,AC50,[4],active: 160 µM
same,outcome,[7],inactive
CCCOC(=O)CC,outcome,[1],inactive
same,outcome,[4],inactive
same,AC50,[5],inconclusive: 24.7 µM
CSc1ccc(O)cc1C,AC50,[1],inconclusive: 100 µM
same,outcome,[7],inactive
same,outcome,[5],inactive
CCc1cc(C2=C(C(=O)O)N(c3ccccc3C(F)(F)F)S(=O)(=O)c3ccccc32)cc2c1OCO2,AC50,[1],inconclusive: 100 µM
same,AC50,[4],inconclusive: 24.5 µM
same,AC50,[7],inconclusive: 0.27 µM
same,outcome,[5],inactive
CCCCCCc1ccc(O)cc1O,AC50,[1],inconclusive: 60.3 µM
same,AC50,[4],active: 24.2 µM
CCCCN(CCCC)CCCC,AC50,[3],inconclusive: 184 µM
same,AC50,[7],inconclusive: 0.00915 µM
N=C1N=C(N)c2ccccc21,outcome,[1],inactive
same,outcome,[4],inactive
same,AC50,[5],inconclusive: 23.8 µM
CC(=O)C1=C(C)[C@@H]2C[C@@]3(C1)[C@H](C)CC[C@H]3C2(C)C,AC50,[2],inconclusive: 162 µM
same,AC50,[4],active: 21.4 µM
CCCCNC(=S)NCCCC,AC50,[3],inconclusive: 100 µM
same,outcome,[4],inactive
CCCCC(CC)COC(=O)CCCCCCCCC(=O)OCC(CC)CCCC (stereo not given),outcome,[1],inactive
same,outcome,[4],inactive
N#CCN(CC#N)CCN(CC#N)CC#N,AC50,[1],inconclusive: 100 µM
same,AC50,[7],inconclusive: 180 µM
CS(=O)(=O)c1ccc([C@@H](C[C@H]2CCC(=O)C2)C(=O)Nc2cnccn2)cc1Cl,outcome,[1],inactive
same,AC50,[7],inconclusive: 100 µM
C[C@H]1C[C@H]2[C@@H]3CCC4=CC(=O)C=C[C@]4(C)[C@@]3(F)[C@@H](O)C[C@]2(C)[C@@]1(O)C(=O)CO,AC50,[2],inconclusive: 48.9 µM
same,outcome,[3],inactive
CCCCCC[C@@H](O)C/C=C\CCCCCCCC(=O)O,AC50,[2],inconclusive: 75.7 µM
same,AC50,[4],active: 30.9 µM
same,outcome,[7],inactive
same,outcome,[5],inactive
CNS(=O)(=O)C(F)(F)C(F)(F)C(F)(F)C(F)(F)C(F)(F)C(F)(F)C(F)(F)C(F)(F)F,AC50,[2],inconclusive: 150 µM
Cc1cc(O)c(C)c(C)c1O,outcome,[4],inactive
same,AC50,[7],inconclusive: 176 µM
CCCCCCCCCCCCCC(=O)OCC(O)CO (stereo not given),AC50,[1],inconclusive: 100 µM
same,outcome,[4],inactive
CC(CN1c2ccccc2Sc2ccccc21)N(C)C (stereo not given),AC50,[2],inconclusive: 33.4 µM
same,outcome,[3],inactive
same,AC50,[4],inconclusive: 33.4 µM
same,outcome,[7],inactive
C#C[C@]1(O)CC[C@H]2[C@@H]3CCC4=Cc5oncc5C[C@]4(C)[C@H]3CC[C@@]21C,AC50,[3],active: 120 µM
same,AC50,[4],active: 154 µM
same,AC50,[5],inconclusive: 33.4 µM
CCCCCCCCCCCCN1CCOCC1,AC50,[2],inconclusive: 59 µM
same,outcome,[3],inactive
same,AC50,[4],active: 42.8 µM
same,outcome,[7],inactive
N#CCCOCCC#N,AC50,[1],inconclusive: 100 µM
same,AC50,[4],inconclusive: 100 µM
same,outcome,[7],inactive
same,AC50,[5],inconclusive: 0.0823 µM
O=C(Oc1ccccc1)c1ccccc1,AC50,[3],inconclusive: 0.242 µM
same,outcome,[7],inactive

# In another format: results already given.
structure (smiles) | measurement | setting | value
CN1[C@@H]2CC(OC(=O)[C@H](CO)c3ccccc3)C[C@H]1[C@@H]1O[C@@H]12 (stereo not given in full) | outcome | [7] | inactive
CCCOC(=O)CC | outcome | [1] | inactive
same | outcome | [4] | inactive
same | AC50 | [5] | inconclusive: 24.7 µM

# — PubChem BioAssay (EPA / NIEHS)
